{"source": "paper PMC4904373", "about": "“Azole Antifungal Sensitivity of Sterol 14α-Demethylase (CYP51) and CYP5218 from Malassezia globosa” (Scientific Reports, 2016)", "system": "M. globosa ATCC MYA-4612", "experiment": "M. globosa MIC100 determination", "assay_type": "cell-based, Malassezia globosa", "conditions": "based on MIC100", "method": "M. globosa ATCC MYA-4612 was grown for 7 days at 30 °C in modified Dixon medium (3.6% malt extract, 2% desiccated ox-bile, 1% Tween 40, 0.6% peptone, 0.2% glycerol, 0.2% oleic acid, pH adjusted to 6 with HCl) until a culture density of 1.5 × 10^5 cells ml^−1 was obtained. Cells from 3 ml of stock culture were harvested, suspended in 1 ml of saline and used to inoculate 30 ml of fresh modified Dixon medium for use as M. globosa inoculums in MIC determinations. Stock azole concentrations of 1600, 800, 400, 200, 100, 50, 25, 12.5, 6.25, 3.125 and 0 μg ml^−1 were prepared in DMSO. These were diluted ten-fold with fresh modified Dixon media and 20 μl of the diluted azole solutions were then mixed with 180 μl of M. globosa inoculum in microtiter plate wells to yield final azole concentrations of 16, 8, 4, 2, 1, 0.5, 0.25, 0.125, 0.0625, 0.03125 and 0 μg ml^−1. The microtiter plates were incubated at 30 °C for 7 days and then read. Each azole MIC100 determination was performed in triplicate."}
{"smiles": "CC(=O)N1CCN(c2ccc(NCC3COC(Cn4ccnc4)(c4ccc(Cl)cc4Cl)O3)cc2)CC1", "note": "(stereo not drawn) [ketaminazole]", "values": [{"measurement": "fold less effective than itraconazole at arresting M. globosa growth", "result": 128, "unit": "fold"}, {"measurement": "fold less effective than ketoconazole at arresting M. globosa growth", "result": "~ 32 fold"}, {"measurement": "fold less effective than ketoconazole at arresting M. globosa growth", "setting": "listed as Ketaminazole", "result": 32, "unit": "fold"}]}
